From article PMC5533585 come the findings set out here.

Chains of the proteins cited; added tags and fusions are not shown.
UniProt Q8TD16: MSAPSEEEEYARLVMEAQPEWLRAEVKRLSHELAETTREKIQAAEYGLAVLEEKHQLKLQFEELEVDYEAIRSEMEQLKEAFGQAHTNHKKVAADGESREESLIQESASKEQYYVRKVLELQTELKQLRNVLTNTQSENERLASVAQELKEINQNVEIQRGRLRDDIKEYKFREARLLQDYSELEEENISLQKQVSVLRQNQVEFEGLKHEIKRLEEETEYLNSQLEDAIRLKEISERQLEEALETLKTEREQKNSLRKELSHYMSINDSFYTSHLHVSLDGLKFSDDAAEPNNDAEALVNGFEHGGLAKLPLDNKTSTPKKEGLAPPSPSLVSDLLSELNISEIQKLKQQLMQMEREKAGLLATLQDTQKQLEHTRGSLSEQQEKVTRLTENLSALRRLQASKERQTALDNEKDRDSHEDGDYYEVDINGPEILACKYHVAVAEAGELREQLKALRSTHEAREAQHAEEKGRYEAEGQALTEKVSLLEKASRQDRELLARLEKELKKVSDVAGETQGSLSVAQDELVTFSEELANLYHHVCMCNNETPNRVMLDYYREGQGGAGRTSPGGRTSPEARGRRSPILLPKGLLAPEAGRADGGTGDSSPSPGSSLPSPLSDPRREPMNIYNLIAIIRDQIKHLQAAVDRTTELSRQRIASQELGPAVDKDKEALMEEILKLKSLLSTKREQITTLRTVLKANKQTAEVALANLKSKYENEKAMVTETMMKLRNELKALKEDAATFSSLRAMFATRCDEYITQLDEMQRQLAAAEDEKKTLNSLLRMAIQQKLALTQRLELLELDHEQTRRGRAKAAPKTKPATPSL

Results are given in words; binding and its absence hold for the method and conditions named. In cells and extracts the contact can be indirect. A yes stands for co-enrichment or nearness to the bait. Other partners may have been found. For part of these data: Where a sequence is shown, tags or fusion partners need not be part of it.

Holding throughout (assay): proximity labelling; BioID in living stable HEK-293 cells, 50 µM biotin for 16 hr; lysis in RIPA buffer; streptavidin beads; MS/MS; hits >3-fold enriched over a BioID alone control
In experiment [1] the target is BICD2 tagged with BioID (BICD2 datasets; N- or C-terminal fusion not told) (human) (UniProt Q8TD16).
The target in the next experiment is IC2-BioID-3×FLAG (human).
Experiment [2] addresses T1, HOOK3-BioID-3×FLAG (human) (UniProt Q86VS8).
T1 sequence: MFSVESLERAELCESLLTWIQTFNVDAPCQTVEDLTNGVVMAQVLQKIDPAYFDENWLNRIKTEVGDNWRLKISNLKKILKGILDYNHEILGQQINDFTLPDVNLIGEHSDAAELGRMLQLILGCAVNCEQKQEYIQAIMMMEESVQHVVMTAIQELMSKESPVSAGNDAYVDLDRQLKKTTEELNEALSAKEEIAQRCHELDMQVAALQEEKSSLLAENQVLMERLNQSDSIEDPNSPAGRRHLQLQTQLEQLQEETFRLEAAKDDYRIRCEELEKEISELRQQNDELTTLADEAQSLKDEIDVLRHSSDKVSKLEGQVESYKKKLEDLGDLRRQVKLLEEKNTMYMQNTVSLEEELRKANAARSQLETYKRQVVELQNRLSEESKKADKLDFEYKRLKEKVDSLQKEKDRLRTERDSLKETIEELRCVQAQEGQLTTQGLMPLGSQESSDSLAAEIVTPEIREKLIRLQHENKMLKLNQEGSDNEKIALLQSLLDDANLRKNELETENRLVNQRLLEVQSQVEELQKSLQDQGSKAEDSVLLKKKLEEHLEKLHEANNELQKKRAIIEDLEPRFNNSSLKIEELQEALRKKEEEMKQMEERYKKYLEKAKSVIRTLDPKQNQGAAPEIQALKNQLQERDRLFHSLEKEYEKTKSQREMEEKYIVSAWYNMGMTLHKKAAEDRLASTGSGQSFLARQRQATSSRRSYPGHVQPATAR

B1: BICD1 (protein, UniProt Q96G01 1-975)
chain: MAAEEVLQTVDHYKTEIERLTKELTETTHEKIQAAEYGLVVLEEKLTLKQQYDELEAEYDSLKQELEQLKEAFGQSFSIHRKVAEDGETREETLLQESASKEAYYLGKILEMQNELKQSRAVVTNVQAENERLTAVVQDLKENNEMVELQRIRMKDEIREYKFREARLLQDYTELEEENITLQKLVSTLKQNQVEYEGLKHEIKRFEEETVLLNSQLEDAIRLKEIAEHQLEEALETLKNEREQKNNLRKELSQYISLNDNHISISVDGLKFAEDGSEPNNDDKMNGHIHGPLVKLNGDYRTPTLRKGESLNPVSDLFSELNISEIQKLKQQLMQVEREKAILLANLQESQTQLEHTKGALTEQHERVHRLTEHVNAMRGLQSSKELKAELDGEKGRDSGEEAHDYEVDINGLEILECKYRVAVTEVIDLKAEIKALKEKYNKSVENYTDEKAKYESKIQMYDEQVTSLEKTTKESGEKMAHMEKELQKMTSIANENHSTLNTAQDELVTFSEELAQLYHHVCLCNNETPNRVMLDYYRQSRVTRSGSLKGPDDPRGLLSPRLARRGVSSPVETRTSSEPVAKESTEASKEPSPTKTPTISPVITAPPSSPVLDTSDIRKEPMNIYNLNAIIRDQIKHLQKAVDRSLQLSRQRAAARELAPMIDKDKEALMEEILKLKSLLSTKREQIATLRAVLKANKQTAEVALANLKNKYENEKAMVTETMTKLRNELKALKEDAATFSSLRAMFATRCDEYVTQLDEMQRQLAAAEDEKKTLNTLLRMAIQQKLALTQRLEDLEFDHEQSRRSKGKLGKSKIGSPKVSGEASVTVPTIDTYLLHSQGPQTPNIRVSSGTQRKRQFSPSLCDQSRPRTSGASYLQNLLRVPPDPTSTESFLLKGPPSMSEFIQGHRLSKEKRLTVAPPDCQQPAASVPPQCSQLAGRQDCPTVSPDTALPEEQPHSSSQCAPLHCLSKPPHP
In the case of B1, the binding entry (in experiment [1]; with IC2-BioID-3×FLAG (human)) was “binds” throughout.

B2: KIF1C (protein, UniProt O43896 1-1103)
chain: MAGASVKVAVRVRPFNARETSQDAKCVVSMQGNTTSIINPKQSKDAPKSFTFDYSYWSHTSTEDPQFASQQQVYRDIGEEMLLHAFEGYNVCIFAYGQTGAGKSYTMMGRQEPGQQGIVPQLCEDLFSRVSENQSAQLSYSVEVSYMEIYCERVRDLLNPKSRGSLRVREHPILGPYVQDLSKLAVTSYADIADLMDCGNKARTVAATNMNETSSRSHAVFTIVFTQRCHDQLTGLDSEKVSKISLVDLAGSERADSSGARGMRLKEGANINKSLTTLGKVISALADMQSKKRKSDFIPYRDSVLTWLLKENLGGNSRTAMIAALSPADINYEETLSTLRYADRTKQIRCNAIINEDPNARLIRELQEEVARLRELLMAQGLSASALEGLKTEEGSVRGALPAVSSPPAPVSPSSPTTHNGELEPSFSPNTESQIGPEEAMERLQETEKIIAELNETWEEKLRKTEALRMEREALLAEMGVAVREDGGTVGVFSPKKTPHLVNLNEDPLMSECLLYHIKDGVTRVGQVDMDIKLTGQFIREQHCLFRSIPQPDGEVVVTLEPCEGAETYVNGKLVTEPLVLKSGNRIVMGKNHVFRFNHPEQARLERERGVPPPPGPPSEPVDWNFAQKELLEQQGIDIKLEMEKRLQDLENQYRKEKEEADLLLEQQRLYADSDSGDDSDKRSCEESWRLISSLREQLPPTTVQTIVKRCGLPSSGKRRAPRRVYQIPQRRRLQGKDPRWATMADLKMQAVKEICYEVALADFRHGRAEIEALAALKMRELCRTYGKPDGPGDAWRAVARDVWDTVGEEEGGGAGSGGGSEEGARGAEVEDLRAHIDKLTGILQEVKLQNSSKDRELQALRDRMLRMERVIPLAQDHEDENEEGGEVPWAPPEGSEAAEEAAPSDRMPSARPPSPPLSSWERVSRLMEEDPAFRRGRLRWLKQEQLRLQGLQGSGGRGGGLRRPPARFVPPHDCKLRFPFKSNPQHRESWPGMGSGEAPTPLQPPEEVTPHPATPARRPPSPRRSHHPRRNSLDGGGRSRGAGSAQPEPQHFQPKKHNSYPQPPQPYPAQRPPGPRYPPYTTPPRMRRQRSAPDLKESGAAV
In the case of B2, in experiment [2], the binding result is listed as “binds”.
